These are yes or no findings as the source states them, for the method shown.
Molecular target: Ad5 hexon, in the virion (human adenovirus 5) (UniProt P04133)
Experiment: co-IP; both purified

Sequences of proteins named here, by UniProt entry; tags and fusion partners are left off.
UniProt P04133: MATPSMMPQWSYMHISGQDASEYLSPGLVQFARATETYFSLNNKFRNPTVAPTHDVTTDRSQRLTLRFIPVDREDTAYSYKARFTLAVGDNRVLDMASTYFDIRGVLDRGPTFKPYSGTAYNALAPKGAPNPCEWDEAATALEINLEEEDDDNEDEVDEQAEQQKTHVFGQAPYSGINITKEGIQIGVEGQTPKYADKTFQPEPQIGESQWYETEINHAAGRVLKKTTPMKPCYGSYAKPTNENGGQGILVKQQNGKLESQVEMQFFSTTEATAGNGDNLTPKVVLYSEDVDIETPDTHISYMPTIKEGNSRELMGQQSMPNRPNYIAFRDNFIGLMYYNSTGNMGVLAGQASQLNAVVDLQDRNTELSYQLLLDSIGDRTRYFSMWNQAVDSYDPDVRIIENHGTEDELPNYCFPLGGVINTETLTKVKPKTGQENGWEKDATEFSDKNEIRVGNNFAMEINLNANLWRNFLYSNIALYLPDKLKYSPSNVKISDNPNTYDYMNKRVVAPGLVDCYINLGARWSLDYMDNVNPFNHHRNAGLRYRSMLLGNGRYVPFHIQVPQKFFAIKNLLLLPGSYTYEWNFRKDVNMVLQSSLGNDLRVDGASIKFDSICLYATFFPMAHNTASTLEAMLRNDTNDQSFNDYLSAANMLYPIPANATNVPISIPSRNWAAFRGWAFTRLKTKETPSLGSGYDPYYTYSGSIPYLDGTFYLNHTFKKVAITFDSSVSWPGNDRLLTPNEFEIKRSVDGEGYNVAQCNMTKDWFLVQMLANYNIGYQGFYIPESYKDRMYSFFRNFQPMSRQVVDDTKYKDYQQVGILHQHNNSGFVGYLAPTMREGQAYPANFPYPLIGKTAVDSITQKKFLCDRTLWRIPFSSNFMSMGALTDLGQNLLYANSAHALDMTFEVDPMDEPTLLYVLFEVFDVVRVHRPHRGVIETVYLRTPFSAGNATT

B1: Ad5 fiber protein (protein, UniProt P11818 1-581)
chain: MKRARPSEDTFNPVYPYDTETGPPTVPFLTPPFVSPNGFQESPPGVLSLRLSEPLVTSNGMLALKMGNGLSLDEAGNLTSQNVTTVSPPLKKTKSNINLEISAPLTVTSEALTVAAAAPLMVAGNTLTMQSQAPLTVHDSKLSIATQGPLTVSEGKLALQTSGPLTTTDSSTLTITASPPLTTATGSLGIDLKEPIYTQNGKLGLKYGAPLHVTDDLNTLTVATGPGVTINNTSLQTKVTGALGFDSQGNMQLNVAGGLRIDSQNRRLILDVSYPFDAQNQLNLRLGQGPLFINSAHNLDINYNKGLYLFTASNNSKKLEVNLSTAKGLMFDATAIAINAGDGLEFGSPNAPNTNPLKTKIGHGLEFDSNKAMVPKLGTGLSFDSTGAITVGNKNNDKLTLWTTPAPSPNCRLNAEKDAKLTLVLTKCGSQILATVSVLAVKGSLAPISGTVQSAHLIIRFDENGVLLNNSFLDPEYWNFRNGDLTEGTAYTNAVGFMPNLSAYPKSHGKTAKSNIVSQVYLNGDKTKPVTLTITLNGTQETGDTTPSAYSMSFSWDWSGHNYINEIFATSSYTFSYIAQE
- binding: no binding (condition: after heating Ad5 to 49°C)
